Source: paper PMC6449973
Results are given in words; binding and its absence hold for the method and conditions named. In cells and extracts the contact can be indirect. Some binding calls cover weakened binding; strength is not graded here.

How the values were obtained:
[1] = biological target: connexin 32, stably overexpressed in SMMC-7721 cells (SMMC-Cx32) (UniProt P08034); assay: co-IP; SMMC-Vector and SMMC-Cx32 (stable Cx32 overexpression) cell lysates; anti-Cx32, anti-p-EGFR or anti-Src antibody (2 ug, 4 °C, 4 h), Protein G Plus/Protein A agarose overnight at 4 °C, 5 washes with lysis buffer; nonspecific IgG as negative control; western blot
[2] = biological target: connexin 32 (human (endogenous in HepG2)) (UniProt P08034); assay: co-IP; HepG2-Vector and HepG2-shCx32 cell lysates; anti-Cx32, anti-p-EGFR or anti-Src antibody (2 ug, 4 °C, 4 h), Protein G Plus/Protein A agarose overnight at 4 °C, 5 washes with lysis buffer; nonspecific IgG as negative control; western blot

- binding [1]: binds
- binding [2]: binds
Substance: phospho-EGFR (epidermal growth factor receptor phosphorylated at Tyr845) (from UniProt P00533 25-1210)
